The values below come from patent US5457101A (priority 1994, dated 1995).

This assay has as its system 5-HT-1C receptor.

Consider `Cc1cc2c(s1)Nc1ccccc1N=C2N1CCN(C)CC1` [2-methyl-4-(4-methyl-1-piperazinyl)-10H-thieno-[2,3-b][1,5]benzodiazepine], for which the “activity at the 5-HT-1C receptor” value is reported as “active”.
